Assay results published in article PMC5736349.

Chains of the proteins cited; added tags and fusions are not shown.
UniProt P52332: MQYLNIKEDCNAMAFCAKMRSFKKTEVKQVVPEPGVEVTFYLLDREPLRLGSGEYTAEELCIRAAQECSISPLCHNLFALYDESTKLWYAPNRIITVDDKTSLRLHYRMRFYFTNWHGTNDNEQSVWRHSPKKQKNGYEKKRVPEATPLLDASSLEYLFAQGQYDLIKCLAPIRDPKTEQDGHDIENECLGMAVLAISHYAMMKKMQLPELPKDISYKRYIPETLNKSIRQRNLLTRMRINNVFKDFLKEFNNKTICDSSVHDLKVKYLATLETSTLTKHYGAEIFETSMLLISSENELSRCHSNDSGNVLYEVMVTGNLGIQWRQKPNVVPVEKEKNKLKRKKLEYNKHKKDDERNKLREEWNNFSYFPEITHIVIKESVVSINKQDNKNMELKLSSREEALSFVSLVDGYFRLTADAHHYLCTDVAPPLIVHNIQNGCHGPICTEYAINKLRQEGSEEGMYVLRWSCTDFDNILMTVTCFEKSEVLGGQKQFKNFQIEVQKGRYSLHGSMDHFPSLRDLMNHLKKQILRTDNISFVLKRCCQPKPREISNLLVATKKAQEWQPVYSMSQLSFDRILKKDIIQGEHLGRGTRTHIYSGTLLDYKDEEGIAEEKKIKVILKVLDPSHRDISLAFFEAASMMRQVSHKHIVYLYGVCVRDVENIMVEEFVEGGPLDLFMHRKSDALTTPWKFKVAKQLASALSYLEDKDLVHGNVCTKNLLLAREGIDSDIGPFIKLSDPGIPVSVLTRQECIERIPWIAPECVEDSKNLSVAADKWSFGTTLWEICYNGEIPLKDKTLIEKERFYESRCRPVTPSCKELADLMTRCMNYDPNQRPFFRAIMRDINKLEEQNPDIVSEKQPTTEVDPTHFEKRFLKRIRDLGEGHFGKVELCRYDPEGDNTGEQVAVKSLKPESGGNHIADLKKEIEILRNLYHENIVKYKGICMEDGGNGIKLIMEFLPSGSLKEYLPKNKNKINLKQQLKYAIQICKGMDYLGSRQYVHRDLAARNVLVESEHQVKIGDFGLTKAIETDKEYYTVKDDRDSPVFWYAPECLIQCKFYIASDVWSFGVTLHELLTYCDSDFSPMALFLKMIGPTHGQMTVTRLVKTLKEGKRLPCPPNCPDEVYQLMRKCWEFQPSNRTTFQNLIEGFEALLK
UniProt Q62120: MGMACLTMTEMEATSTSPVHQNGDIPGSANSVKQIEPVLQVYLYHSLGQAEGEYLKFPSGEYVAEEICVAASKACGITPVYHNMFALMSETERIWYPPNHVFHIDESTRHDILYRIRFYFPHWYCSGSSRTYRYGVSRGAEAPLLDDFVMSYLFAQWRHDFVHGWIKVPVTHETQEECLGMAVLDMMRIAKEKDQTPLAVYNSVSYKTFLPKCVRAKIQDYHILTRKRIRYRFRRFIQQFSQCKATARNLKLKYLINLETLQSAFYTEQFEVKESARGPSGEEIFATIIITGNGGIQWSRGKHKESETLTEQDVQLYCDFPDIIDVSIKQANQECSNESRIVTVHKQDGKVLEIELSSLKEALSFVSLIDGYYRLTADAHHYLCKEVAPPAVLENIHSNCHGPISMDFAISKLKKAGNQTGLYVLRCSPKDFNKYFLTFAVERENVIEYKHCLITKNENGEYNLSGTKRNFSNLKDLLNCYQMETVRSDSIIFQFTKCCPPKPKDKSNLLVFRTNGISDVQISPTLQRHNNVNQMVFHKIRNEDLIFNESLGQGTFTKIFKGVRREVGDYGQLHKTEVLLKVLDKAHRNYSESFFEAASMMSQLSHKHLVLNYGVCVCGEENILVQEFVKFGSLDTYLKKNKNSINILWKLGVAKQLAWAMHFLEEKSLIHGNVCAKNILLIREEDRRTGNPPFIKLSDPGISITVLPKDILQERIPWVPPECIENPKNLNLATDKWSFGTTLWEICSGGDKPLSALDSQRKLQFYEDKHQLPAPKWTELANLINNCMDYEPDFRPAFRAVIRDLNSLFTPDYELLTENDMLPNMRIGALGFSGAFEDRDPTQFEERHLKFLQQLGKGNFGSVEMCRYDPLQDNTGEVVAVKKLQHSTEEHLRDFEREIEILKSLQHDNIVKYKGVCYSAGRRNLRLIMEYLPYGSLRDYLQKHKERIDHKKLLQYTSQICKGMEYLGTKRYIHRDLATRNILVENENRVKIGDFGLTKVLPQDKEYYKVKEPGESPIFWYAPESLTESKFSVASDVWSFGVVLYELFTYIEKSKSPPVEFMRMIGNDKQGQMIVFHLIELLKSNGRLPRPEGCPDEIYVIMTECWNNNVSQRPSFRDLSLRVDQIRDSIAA

What was measured:
[1] = molecular target: T1, Atoh1-GFP (knock-in, in mouse tissue) (mouse (endogenous knock-in in Nd2::SmoA1 tumours and cerebellum)) (UniProt P48985); test: affinity purification with mass spectrometry; GFP-trap beads on lysate of 10^8 Atoh1-positive/CD15-negative (non-initiating) cells of Nd2::SmoA1 Atoh1-GFP tumors; overnight at 4°C; 50 mM Tris pH 8.1, 137.5 mM NaCl, 2 mM EDTA, 0.5% Triton-X-100
T1 sequence: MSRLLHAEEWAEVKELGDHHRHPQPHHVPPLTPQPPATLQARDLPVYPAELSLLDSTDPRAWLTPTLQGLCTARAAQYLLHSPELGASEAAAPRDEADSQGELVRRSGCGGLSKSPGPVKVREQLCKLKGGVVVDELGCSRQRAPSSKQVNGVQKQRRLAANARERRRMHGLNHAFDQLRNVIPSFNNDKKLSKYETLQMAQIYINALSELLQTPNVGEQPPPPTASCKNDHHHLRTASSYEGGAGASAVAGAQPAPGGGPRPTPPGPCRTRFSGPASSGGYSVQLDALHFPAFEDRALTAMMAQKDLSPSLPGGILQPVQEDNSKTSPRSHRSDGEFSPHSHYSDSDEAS

[2] = molecular target: T1, Atoh1-GFP (knock-in, in mouse tissue) (mouse (endogenous knock-in in Nd2::SmoA1 tumours and cerebellum)); test: affinity purification with mass spectrometry; GFP-trap beads on lysate of 10^8 Atoh1-positive/CD15-positive (tumor-initiating) cells of Nd2::SmoA1 Atoh1-GFP tumors; overnight at 4°C; 50 mM Tris pH 8.1, 137.5 mM NaCl, 2 mM EDTA, 0.5% Triton-X-100
[3] = molecular target: T1, Atoh1-GFP (knock-in, in mouse tissue) (mouse (endogenous knock-in in Nd2::SmoA1 tumours and cerebellum)); test: condition: only in CD15-negative (non-initiating) tumor cells; affinity purification with mass spectrometry; GFP-trap beads on lysate of 10^8 Atoh1-positive/CD15-negative (non-initiating) cells of Nd2::SmoA1 Atoh1-GFP tumors; overnight at 4°C; 50 mM Tris pH 8.1, 137.5 mM NaCl, 2 mM EDTA, 0.5% Triton-X-100

“Jak1 (from UniProt P52332 1-1153) (enzyme)” was tested, and the binding [1] was “binds”.
In the case of “Janus kinase 2 (Jak2) (from UniProt Q62120 1-1132) (enzyme)”, the binding [2] is reported as “binds” and the binding [3] is reported as “no binding”.

No constants are given. Whether binding was seen depends on the method and setting. In cells and extracts the contact can be indirect. Here binding means that the protein was enriched with, or labelled near, the bait; the list need not be complete. For part of these data: A no says only that the protein was not detected with the bait. Tags and fused reporters may be left off the sequences shown.
